Laboratory results published in article PMC8062763.
These are yes or no findings as the source states them, for the method shown. Binding seen in cells or lysates may run through a third protein. Some entries that bind do so weakly or less than the wild type.

The chains behind the UniProt entries cited, without tags or fusion partners. Where a name states a change or a piece, a line headed by the entry shows the natural chain unless it says otherwise. Residues count along the entry.
UniProt Q9LG05: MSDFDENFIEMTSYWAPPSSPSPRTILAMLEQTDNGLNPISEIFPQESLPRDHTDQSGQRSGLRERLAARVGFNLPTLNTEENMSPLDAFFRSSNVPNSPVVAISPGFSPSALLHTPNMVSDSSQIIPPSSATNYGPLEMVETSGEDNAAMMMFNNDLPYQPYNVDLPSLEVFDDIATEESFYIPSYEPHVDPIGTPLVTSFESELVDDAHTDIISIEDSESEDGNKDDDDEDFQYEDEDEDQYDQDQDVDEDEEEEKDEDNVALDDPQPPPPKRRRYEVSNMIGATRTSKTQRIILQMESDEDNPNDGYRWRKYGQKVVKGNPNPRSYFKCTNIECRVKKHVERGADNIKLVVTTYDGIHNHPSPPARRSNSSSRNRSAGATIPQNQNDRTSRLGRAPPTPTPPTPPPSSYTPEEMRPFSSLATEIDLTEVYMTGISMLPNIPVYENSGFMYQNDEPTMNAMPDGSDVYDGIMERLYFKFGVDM
C-terminal 368-485 peptide of WRKY10 (split-luciferase fusion): residues 368-485 of Q9LG05
UniProt Q9M1Z5: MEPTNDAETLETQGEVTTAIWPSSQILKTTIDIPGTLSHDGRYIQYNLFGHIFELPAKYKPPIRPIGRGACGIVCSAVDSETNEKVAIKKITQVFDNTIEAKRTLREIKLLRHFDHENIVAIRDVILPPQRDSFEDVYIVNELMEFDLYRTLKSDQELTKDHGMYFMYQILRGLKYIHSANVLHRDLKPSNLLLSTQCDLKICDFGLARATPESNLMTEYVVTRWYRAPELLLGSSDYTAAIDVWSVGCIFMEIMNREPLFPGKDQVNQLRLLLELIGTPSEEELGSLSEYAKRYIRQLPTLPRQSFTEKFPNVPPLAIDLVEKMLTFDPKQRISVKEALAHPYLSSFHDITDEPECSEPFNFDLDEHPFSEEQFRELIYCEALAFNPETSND

Tests used:
[1] = target: WRKY10 (split-luciferase fusion, vector JW772) (Arabidopsis thaliana) (UniProt Q9LG05); assay: split reporter; split-luciferase; CLuc and NLuc fusions co-injected by Agrobacterium into N. benthamiana leaf epidermal cells; luminescence imaged 1.5-2 days later with 1 mM luciferin
[2] = target: C-terminal 368-485 peptide of WRKY10 (split-luciferase fusion) (Arabidopsis thaliana) (UniProt Q9LG05); assay: as above
[3] = target: WRKY10-YFP (Arabidopsis thaliana) (UniProt Q9LG05); assay: co-IP; co-expression in N. benthamiana leaves for 40-48 h; lysis buffer 50 mM Tris-HCl pH 7.5, 150 mM NaCl, 2 M urea, 0.1% NP-40; anti-GFP agarose (GFP-Trap), 4 °C, 2 h; blots with anti-GFP and anti-Flag

Row | binding [1] | binding [2] | binding [3] | Substance
1 | binds | binds | – | MPK10 (split-luciferase fusion, vector JW771) (from UniProt Q9M1Z5 1-393) (enzyme)
2 | – | – | binds | MPK10-Flag (from UniProt Q9M1Z5 1-393) (enzyme)
